Measurements reported in PubChem BioAssay AID1259254 (NCATS, 2017)
The whole screen tested about 59,000 reagents; this is a random part of them. About 1,550 of all reagents (2.6%) count as active. 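G2 share is only a proxy for re-replication; each gene was hit by three separate siRNAs, and active genes were retested.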 The raw values are shown without normalisation. The numbers tell different reagents against one gene apart. Not stated in the record: the amount of reagent.

Screen: 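Gene knock-downs that lead to re-replication, shown by excess G2 DNA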 (primary screen)
Cells: human HCT116 colorectal cancer cells
Reagents: single siRNA against human genes
Duration: 3 days
Read-out: 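Imaged Hoechst DNA stain sorts each cell into a cycle phase by DNA amount; per plate, G2 fraction set to 0% for non-targeting and 100% for GMNN siRNA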
Scale: G2 robust z-score and G2 cells, % of GMNN control: higher = more G2 cells, more excess DNA replication; raw share of cells in G2: higher = larger share of cells with G2 DNA content
Active means: 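Active siRNAs have a G2 robust z of 5 or more median absolute deviations over the median, which in these data means about 38% or higher of GMNN control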

gene symbol | reagent no. | G2 robust z-score | G2 cells, % of GMNN control | raw share of cells in G2 (%) | Call
LMX1B (LIM homeobox transcription factor 1 beta) | 1 | -0.586 | -1.15 | 4.91 | inactive
LMX1B (LIM homeobox transcription factor 1 beta) | 2 | 0.0628 | 3.41 | 4.32 | inactive
LMX1B (LIM homeobox transcription factor 1 beta) | 3 | 0.119 | 3.8 | 6.98 | inactive
SACK1F (scaffolding CK1 anchoring protein F) | 1 | 0.735 | 8.14 | 6.32 | inactive
SACK1F (scaffolding CK1 anchoring protein F) | 2 | 0.0278 | 3.16 | 5.47 | inactive
SACK1F (scaffolding CK1 anchoring protein F) | 3 | 1.62 | 14.4 | 8.27 | inactive
C11orf52 (chromosome 11 open reading frame 52) | 1 | -0.922 | -3.52 | 2.59 | inactive
C11orf52 (chromosome 11 open reading frame 52) | 2 | 0.284 | 4.97 | 4.56 | inactive
C11orf52 (chromosome 11 open reading frame 52) | 3 | -0.246 | 1.24 | 3.32 | inactive
SCRIB (scribble planar cell polarity protein) | 1 | 3.36 | 26.6 | 14.4 | inactive
SCRIB (scribble planar cell polarity protein) | 2 | 0.0653 | 3.43 | 5.42 | inactive
SCRIB (scribble planar cell polarity protein) | 3 | -0.401 | 0.144 | 3.35 | inactive
HMCN2 (hemicentin 2) | 1 | -0.567 | -1.03 | 3.21 | inactive
HMCN2 (hemicentin 2) | 2 | 2.93 | 23.6 | 12.4 | inactive
HMCN2 (hemicentin 2) | 3 | 1.2 | 11.4 | 8.04 | inactive
HMCN2 (hemicentin 2) | 4 | 0.069 | 3.45 | 6.22 | inactive
HMCN2 (hemicentin 2) | 5 | -1.03 | -4.25 | 2.17 | inactive
HMCN2 (hemicentin 2) | 6 | -0.00212 | 2.95 | 4.32 | inactive
HMCN2 (hemicentin 2) | 7 | 0.4 | 5.78 | 4.88 | inactive
HMCN2 (hemicentin 2) | 8 | 1.05 | 10.4 | 7.48 | inactive
HMCN2 (hemicentin 2) | 9 | 0.109 | 3.73 | 4.19 | inactive
TENT2 (terminal nucleotidyltransferase 2) | 1 | -0.554 | -0.928 | 3.27 | inactive
TENT2 (terminal nucleotidyltransferase 2) | 2 | -0.217 | 1.44 | 3.44 | inactive
TENT2 (terminal nucleotidyltransferase 2) | 3 | -0.592 | -1.2 | 2.38 | inactive
GEN1 (GEN1 structure-specific endonuclease) | 1 | -0.193 | 1.61 | 3.76 | inactive
GEN1 (GEN1 structure-specific endonuclease) | 2 | -0.719 | -2.09 | 3.35 | inactive
GEN1 (GEN1 structure-specific endonuclease) | 3 | 8.34 | 61.6 | 26.1 | active
GEN1 (GEN1 structure-specific endonuclease) | 4 | -0.398 | 0.167 | 3.11 | inactive
GEN1 (GEN1 structure-specific endonuclease) | 5 | 0.0155 | 3.08 | 5.04 | inactive
GEN1 (GEN1 structure-specific endonuclease) | 6 | -0.181 | 1.7 | 4 | inactive
FLJ37786 (retired record) | 1 | 0.00959 | 3.03 | 4.79 | inactive
FLJ37786 (retired record) | 2 | 1.86 | 16.1 | 9.05 | inactive
FLJ37786 (retired record) | 3 | -0.342 | 0.559 | 3.31 | inactive
SLC27A2 | 1 | 3.24 | 25.8 | 16.9 | inactive
SLC27A2 | 2 | -0.796 | -2.63 | 5.44 | inactive
SLC27A2 | 3 | -0.656 | -1.65 | 3.31 | inactive
STAR (steroidogenic acute regulatory protein) | 1 | 1.96 | 16.8 | 10.3 | inactive
STAR (steroidogenic acute regulatory protein) | 2 | 0.783 | 8.47 | 6.76 | inactive
STAR (steroidogenic acute regulatory protein) | 3 | 5.22 | 39.7 | 19 | active
AGTR1 (angiotensin II receptor type 1) | 1 | 0.349 | 5.43 | 7.78 | inactive
AGTR1 (angiotensin II receptor type 1) | 2 | -0.109 | 2.2 | 5.29 | inactive
AGTR1 (angiotensin II receptor type 1) | 3 | 0.0715 | 3.47 | 4.33 | inactive
AICDA (activation induced cytidine deaminase) | 1 | -0.125 | 2.09 | 5.09 | inactive
AICDA (activation induced cytidine deaminase) | 2 | -0.0481 | 2.63 | 6.74 | inactive
AICDA (activation induced cytidine deaminase) | 3 | -0.0538 | 2.59 | 5.16 | inactive
EFHC1 (EF-hand domain containing 1) | 1 | -0.168 | 1.79 | 4.81 | inactive
EFHC1 (EF-hand domain containing 1) | 2 | -0.05 | 2.62 | 4.11 | inactive
EFHC1 (EF-hand domain containing 1) | 3 | 1.02 | 10.2 | 4.79 | inactive
SLC35F6 | 1 | 0.552 | 6.85 | 6.06 | inactive
SLC35F6 | 2 | 0.871 | 9.1 | 8.1 | inactive
SLC35F6 | 3 | 0.764 | 8.35 | 5.95 | inactive

9 entries already listed, ordered by “G2 robust z-score”, descending.
gene symbol | reagent no. | G2 robust z-score | G2 cells, % of GMNN control | raw share of cells in G2 (%) | Call
GEN1 (GEN1 structure-specific endonuclease) | 3 | 8.34 | 61.6 | 26.1 | active
SLC27A2 | 1 | 3.24 | 25.8 | 16.9 | inactive
FLJ37786 (retired record) | 2 | 1.86 | 16.1 | 9.05 | inactive
GEN1 (GEN1 structure-specific endonuclease) | 5 | 0.0155 | 3.08 | 5.04 | inactive
FLJ37786 (retired record) | 1 | 0.00959 | 3.03 | 4.79 | inactive
GEN1 (GEN1 structure-specific endonuclease) | 6 | -0.181 | 1.7 | 4 | inactive
FLJ37786 (retired record) | 3 | -0.342 | 0.559 | 3.31 | inactive
GEN1 (GEN1 structure-specific endonuclease) | 4 | -0.398 | 0.167 | 3.11 | inactive
GEN1 (GEN1 structure-specific endonuclease) | 2 | -0.719 | -2.09 | 3.35 | inactive

Additional entries follow:
gene symbol | reagent no. | G2 robust z-score | G2 cells, % of GMNN control | raw share of cells in G2 (%) | Call
GEMIN5 (gem nuclear organelle associated protein 5) | 1 | -0.439 | -0.122 | 4.37 | inactive
GEMIN5 (gem nuclear organelle associated protein 5) | 2 | -0.443 | -0.153 | 3.87 | inactive
GEMIN5 (gem nuclear organelle associated protein 5) | 3 | -0.551 | -0.912 | 2.98 | inactive
CCDC51 (coiled-coil domain containing 51) | 1 | -0.796 | -2.63 | 3.35 | inactive
CCDC51 (coiled-coil domain containing 51) | 2 | -0.275 | 1.03 | 4.75 | inactive
CCDC51 (coiled-coil domain containing 51) | 3 | -0.671 | -1.75 | 1.9 | inactive
PANK3 (pantothenate kinase 3) | 1 | -0.577 | -1.09 | 5.25 | inactive
PANK3 (pantothenate kinase 3) | 2 | 1.57 | 14 | 10.3 | inactive
PANK3 (pantothenate kinase 3) | 3 | -0.483 | -0.434 | 3.54 | inactive
TRIM63 (tripartite motif containing 63) | 1 | -0.957 | -3.77 | 2.83 | inactive
TRIM63 (tripartite motif containing 63) | 2 | 0.167 | 4.14 | 6.32 | inactive
TRIM63 (tripartite motif containing 63) | 3 | 1.77 | 15.4 | 11.9 | inactive
AKNAD1 (AKNA domain containing 1) | 1 | -0.965 | -3.82 | 2.19 | inactive
AKNAD1 (AKNA domain containing 1) | 2 | 0.129 | 3.88 | 4.46 | inactive
AKNAD1 (AKNA domain containing 1) | 3 | 1.63 | 14.4 | 7.8 | inactive
LINC01124 (long independently transcribed non-coding RNA 1124) | 1 | 1.04 | 10.3 | 7.6 | inactive
LINC01124 (long independently transcribed non-coding RNA 1124) | 2 | 0.0973 | 3.65 | 4.8 | inactive
LINC01124 (long independently transcribed non-coding RNA 1124) | 3 | -0.822 | -2.82 | 2.16 | inactive
ETV2 (ETS variant transcription factor 2) | 1 | -1.33 | -6.42 | 1.37 | inactive
ETV2 (ETS variant transcription factor 2) | 2 | 0.965 | 9.76 | 8.97 | inactive
ETV2 (ETS variant transcription factor 2) | 3 | 0.976 | 9.83 | 8.81 | inactive
TRABD (TraB domain containing) | 1 | -0.594 | -1.21 | 3.94 | inactive
TRABD (TraB domain containing) | 2 | 3.24 | 25.8 | 15.6 | inactive
TRABD (TraB domain containing) | 3 | 1.5 | 13.5 | 6.08 | inactive
HNRNPUL1 (heterogeneous nuclear ribonucleoprotein U like 1) | 1 | 4.84 | 37.1 | 16.6 | inactive
HNRNPUL1 (heterogeneous nuclear ribonucleoprotein U like 1) | 2 | 0.523 | 6.65 | 6.14 | inactive
HNRNPUL1 (heterogeneous nuclear ribonucleoprotein U like 1) | 3 | -0.0246 | 2.79 | 7.49 | inactive
ADCY5 (adenylate cyclase 5) | 1 | 0.45 | 6.14 | 6.81 | inactive
ADCY5 (adenylate cyclase 5) | 2 | 0.327 | 5.27 | 6.95 | inactive
ADCY5 (adenylate cyclase 5) | 3 | 5.01 | 38.2 | 18.2 | active
KCND3 (potassium voltage-gated channel subfamily D member 3) | 1 | -1.17 | -5.25 | 3.38 | inactive
KCND3 (potassium voltage-gated channel subfamily D member 3) | 2 | 1.5 | 13.5 | 9.36 | inactive
KCND3 (potassium voltage-gated channel subfamily D member 3) | 3 | -1.13 | -5.01 | 2.42 | inactive
COQ7 (coenzyme Q7, hydroxylase) | 1 | -0.634 | -1.49 | 3.36 | inactive
COQ7 (coenzyme Q7, hydroxylase) | 2 | -0.59 | -1.18 | 6.01 | inactive
COQ7 (coenzyme Q7, hydroxylase) | 3 | -0.865 | -3.12 | 4.34 | inactive
